Consider three molecules from PMC10651131.

Experiment [1] has as its target T1, serum response factor (SRF), fused to the S10 or S11 GFP fragment (UniProt Q9JM73).
T1 sequence: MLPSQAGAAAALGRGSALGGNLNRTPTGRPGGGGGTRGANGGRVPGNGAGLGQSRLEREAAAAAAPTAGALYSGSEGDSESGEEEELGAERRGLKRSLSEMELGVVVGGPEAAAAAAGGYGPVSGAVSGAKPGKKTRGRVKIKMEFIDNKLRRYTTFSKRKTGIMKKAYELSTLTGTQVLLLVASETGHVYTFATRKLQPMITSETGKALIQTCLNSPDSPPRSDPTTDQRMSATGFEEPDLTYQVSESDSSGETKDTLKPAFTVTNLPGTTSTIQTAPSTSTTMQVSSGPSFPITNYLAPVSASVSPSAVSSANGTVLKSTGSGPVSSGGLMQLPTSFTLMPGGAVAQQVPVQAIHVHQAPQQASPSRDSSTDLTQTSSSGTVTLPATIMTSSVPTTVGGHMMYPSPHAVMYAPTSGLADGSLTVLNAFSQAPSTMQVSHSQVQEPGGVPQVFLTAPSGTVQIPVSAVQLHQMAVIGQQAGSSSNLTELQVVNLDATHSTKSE
Kind of experiment: split reporter; trimolecular fluorescence complementation (TriFC): GFP (S1 to S9) fragment coexpressed with proteins fused to the S10 or S11 GFP fragments in HEK293T cells, epifluorescence 8 hours after transfection; in some panels an untagged third protein coexpressed.

Experiment [2] concerns the target B cell lymphoma 6 (Bcl6), fused to the S10 or S11 GFP fragment (UniProt P41183). The description is as above.
The target of experiment [3] is T2, MKL2 for coimmunoprecipitation (UniProt P59759).
T2 sequence: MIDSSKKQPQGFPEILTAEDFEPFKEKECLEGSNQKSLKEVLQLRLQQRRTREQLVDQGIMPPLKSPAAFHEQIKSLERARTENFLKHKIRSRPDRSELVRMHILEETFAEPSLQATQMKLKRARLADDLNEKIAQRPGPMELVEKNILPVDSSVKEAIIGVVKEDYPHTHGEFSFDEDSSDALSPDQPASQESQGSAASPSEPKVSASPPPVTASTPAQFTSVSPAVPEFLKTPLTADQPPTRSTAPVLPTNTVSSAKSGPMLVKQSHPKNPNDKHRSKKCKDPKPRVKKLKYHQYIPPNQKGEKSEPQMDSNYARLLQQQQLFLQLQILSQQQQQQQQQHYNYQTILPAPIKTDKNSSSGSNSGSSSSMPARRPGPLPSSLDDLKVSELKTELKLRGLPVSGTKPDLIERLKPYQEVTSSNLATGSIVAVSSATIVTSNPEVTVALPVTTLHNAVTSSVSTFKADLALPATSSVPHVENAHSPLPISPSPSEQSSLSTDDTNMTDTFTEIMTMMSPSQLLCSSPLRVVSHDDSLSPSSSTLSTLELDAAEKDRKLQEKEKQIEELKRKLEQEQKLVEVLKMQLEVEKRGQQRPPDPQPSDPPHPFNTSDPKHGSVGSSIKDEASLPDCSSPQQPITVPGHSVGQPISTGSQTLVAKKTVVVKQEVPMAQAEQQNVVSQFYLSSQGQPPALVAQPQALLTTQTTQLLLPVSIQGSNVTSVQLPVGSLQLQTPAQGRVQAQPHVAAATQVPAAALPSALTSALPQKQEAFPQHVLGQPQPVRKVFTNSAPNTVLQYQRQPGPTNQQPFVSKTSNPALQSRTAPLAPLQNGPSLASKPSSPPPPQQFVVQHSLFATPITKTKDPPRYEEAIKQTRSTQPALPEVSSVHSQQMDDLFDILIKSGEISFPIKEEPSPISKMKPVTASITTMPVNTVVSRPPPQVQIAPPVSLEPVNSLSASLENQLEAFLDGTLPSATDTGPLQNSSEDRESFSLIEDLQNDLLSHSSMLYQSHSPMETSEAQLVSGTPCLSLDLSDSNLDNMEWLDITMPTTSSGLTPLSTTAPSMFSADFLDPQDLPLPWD
The experiment can be described thus: co-IP; Bcl6, SRF and MKL1 or MKL2 overexpressed together in HEK293T; MKL1 or MKL2 pulled down; Triton X-100 lysis buffer; blots with HA, Myc or GST antibodies.

Experiment [4] concerns the target T3, tagged MKL1 for coimmunoprecipitation (UniProt Q8K4J6).
T3 sequence: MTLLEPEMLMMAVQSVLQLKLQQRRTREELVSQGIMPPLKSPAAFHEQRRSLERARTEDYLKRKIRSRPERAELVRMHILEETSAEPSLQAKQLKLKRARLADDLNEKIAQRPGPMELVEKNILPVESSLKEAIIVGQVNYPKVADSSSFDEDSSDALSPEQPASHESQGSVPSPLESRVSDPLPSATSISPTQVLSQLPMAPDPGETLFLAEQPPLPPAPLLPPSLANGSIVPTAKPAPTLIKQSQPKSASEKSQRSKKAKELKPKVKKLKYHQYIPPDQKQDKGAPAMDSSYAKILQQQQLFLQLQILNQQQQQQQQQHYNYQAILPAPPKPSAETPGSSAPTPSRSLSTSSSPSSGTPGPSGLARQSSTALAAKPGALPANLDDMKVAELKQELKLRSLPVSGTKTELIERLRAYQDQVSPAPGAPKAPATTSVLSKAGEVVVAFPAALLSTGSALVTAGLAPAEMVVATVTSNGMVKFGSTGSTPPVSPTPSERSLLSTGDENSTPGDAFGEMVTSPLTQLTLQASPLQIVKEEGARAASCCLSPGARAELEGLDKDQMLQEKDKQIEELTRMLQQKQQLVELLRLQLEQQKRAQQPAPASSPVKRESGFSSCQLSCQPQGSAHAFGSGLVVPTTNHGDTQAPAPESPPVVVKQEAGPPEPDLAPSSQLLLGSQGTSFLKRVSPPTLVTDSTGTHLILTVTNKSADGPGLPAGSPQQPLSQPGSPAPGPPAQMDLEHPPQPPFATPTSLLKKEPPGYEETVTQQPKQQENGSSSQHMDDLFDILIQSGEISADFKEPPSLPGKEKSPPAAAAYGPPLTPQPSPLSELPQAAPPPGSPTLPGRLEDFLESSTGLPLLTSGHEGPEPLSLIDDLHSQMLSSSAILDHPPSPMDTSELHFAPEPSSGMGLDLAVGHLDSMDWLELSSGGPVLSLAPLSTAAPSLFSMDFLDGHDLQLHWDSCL
The description is as above.

The target of experiment [5] is megakaryoblastic leukemia 1 (MKL1), fused to the S10 or S11 GFP fragment (UniProt Q8K4J6). The experiment can be described thus: split reporter; trimolecular fluorescence complementation (TriFC): GFP (S1 to S9) fragment coexpressed with proteins fused to the S10 or S11 GFP fragments in HEK293T cells, epifluorescence 8 hours after transfection; in some panels an untagged third protein coexpressed.

Substrate in experiment [6]: B cell lymphoma 6 (Bcl6), fused to the S10 or S11 GFP fragment (UniProt P41183)
The description is as above. The source holds these as a separate data set.

Like-named read-outs stand apart in the source and are kept apart here. Results are given in words; binding and its absence hold for the method and conditions named. In cells and extracts the contact can be indirect. Some results given as binding are weak or reduced against the parent protein; the word gives no strength. For some of these results: Tags and fused reporters may be left off the sequences shown.

For “B cell lymphoma 6 (Bcl6), fused to the S10 or S11 GFP fragment (from UniProt P41183 1-707)”, the binding result in experiment [1] and in experiment [2] was “binds” each time.

B1: tagged SRF for coimmunoprecipitation (protein, UniProt Q9JM73 1-504)
chain: MLPSQAGAAAALGRGSALGGNLNRTPTGRPGGGGGTRGANGGRVPGNGAGLGQSRLEREAAAAAAPTAGALYSGSEGDSESGEEEELGAERRGLKRSLSEMELGVVVGGPEAAAAAAGGYGPVSGAVSGAKPGKKTRGRVKIKMEFIDNKLRRYTTFSKRKTGIMKKAYELSTLTGTQVLLLVASETGHVYTFATRKLQPMITSETGKALIQTCLNSPDSPPRSDPTTDQRMSATGFEEPDLTYQVSESDSSGETKDTLKPAFTVTNLPGTTSTIQTAPSTSTTMQVSSGPSFPITNYLAPVSASVSPSAVSSANGTVLKSTGSGPVSSGGLMQLPTSFTLMPGGAVAQQVPVQAIHVHQAPQQASPSRDSSTDLTQTSSSGTVTLPATIMTSSVPTTVGGHMMYPSPHAVMYAPTSGLADGSLTVLNAFSQAPSTMQVSHSQVQEPGGVPQVFLTAPSGTVQIPVSAVQLHQMAVIGQQAGSSSNLTELQVVNLDATHSTKSE
As to B1, the binding result in experiment [3] and in experiment [4] was “binds” throughout.

B2: megakaryoblastic leukemia 1 (MKL1), fused to the S10 or S11 GFP fragment (protein, UniProt Q8K4J6 1-964)
chain: MTLLEPEMLMMAVQSVLQLKLQQRRTREELVSQGIMPPLKSPAAFHEQRRSLERARTEDYLKRKIRSRPERAELVRMHILEETSAEPSLQAKQLKLKRARLADDLNEKIAQRPGPMELVEKNILPVESSLKEAIIVGQVNYPKVADSSSFDEDSSDALSPEQPASHESQGSVPSPLESRVSDPLPSATSISPTQVLSQLPMAPDPGETLFLAEQPPLPPAPLLPPSLANGSIVPTAKPAPTLIKQSQPKSASEKSQRSKKAKELKPKVKKLKYHQYIPPDQKQDKGAPAMDSSYAKILQQQQLFLQLQILNQQQQQQQQQHYNYQAILPAPPKPSAETPGSSAPTPSRSLSTSSSPSSGTPGPSGLARQSSTALAAKPGALPANLDDMKVAELKQELKLRSLPVSGTKTELIERLRAYQDQVSPAPGAPKAPATTSVLSKAGEVVVAFPAALLSTGSALVTAGLAPAEMVVATVTSNGMVKFGSTGSTPPVSPTPSERSLLSTGDENSTPGDAFGEMVTSPLTQLTLQASPLQIVKEEGARAASCCLSPGARAELEGLDKDQMLQEKDKQIEELTRMLQQKQQLVELLRLQLEQQKRAQQPAPASSPVKRESGFSSCQLSCQPQGSAHAFGSGLVVPTTNHGDTQAPAPESPPVVVKQEAGPPEPDLAPSSQLLLGSQGTSFLKRVSPPTLVTDSTGTHLILTVTNKSADGPGLPAGSPQQPLSQPGSPAPGPPAQMDLEHPPQPPFATPTSLLKKEPPGYEETVTQQPKQQENGSSSQHMDDLFDILIQSGEISADFKEPPSLPGKEKSPPAAAAYGPPLTPQPSPLSELPQAAPPPGSPTLPGRLEDFLESSTGLPLLTSGHEGPEPLSLIDDLHSQMLSSSAILDHPPSPMDTSELHFAPEPSSGMGLDLAVGHLDSMDWLELSSGGPVLSLAPLSTAAPSLFSMDFLDGHDLQLHWDSCL
Take B2: the binding entry is “binds” in experiment [1], “binds” in experiment [5] and “no binding” in experiment [6].
